# Laboratory results: PubChem BioAssay AID686938 (Drosophila RNAi Screening Center, 2013)
# Assay: 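Knock-downs reducing store-operated calcium influx in Drosophila cells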 (primary screen)
# Cells: Drosophila S2R+ cells
# Knock-down reagent: long dsRNA against Drosophila genes, about 0.25 µg dsRNA per well, roughly 10,000 cells
# Time to read-out: 5 days of knock-down before the calcium assay
# Challenge: thapsigargin (SERCA pump blocker) to empty calcium stores; entry signal taken 4 min after adding it
# Measured: 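Duplicate raw fluo-4 intensities per well from a plate reader, at rest and four minutes after thapsigargin emptied calcium stores; entry-to-rest ratio filled for only some wells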
# Direction: calcium entry signal: higher = stronger calcium signal after store depletion; resting calcium signal: higher = higher resting calcium signal
# Call rule: 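Hit if the duplicate-averaged plate z-score for entry over resting signal is under −3; wells with weak total dye signal (Fmax z < −2) or more than 5 off-targets removed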
# Calls: active = strongly reduced calcium entry; inactive = no strong reduction
# In all, the deposit lists about 23,000 reagents; shown is an unselected part of those that have a named target and a result. Over the whole deposit, 75 (0.33%) got an active call. 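Raw plate signals without normalisation; calls rest on plate z-scores that were not deposited; ratio present for only 364 wells.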 Unmarked entries are inactive. Reagents against one gene are numbered here. Not stated in the record: the dose of the treatment.
target,reagent no.,"calcium entry signal, replicate 1 (fluorescence units)","calcium entry signal, replicate 2 (fluorescence units)","resting calcium signal, replicate 1 (fluorescence units)","resting calcium signal, replicate 2 (fluorescence units)"
Dhc64C,1,4.74e7,3.82e7,3.38e7,1.74e7
Rbp1-like,1,3.26e7,4.72e7,1.58e7,2.13e7
Rbp1-like,2,3.33e7,4.94e7,1.64e7,2.50e7
Rbp1-like,3,3.41e7,5.08e7,1.58e7,2.51e7
bdwf,1,3.33e7,2.85e7,1.52e7,1.32e7
Dok,1,3.61e7,4.04e7,1.75e7,1.82e7
levy,1,3.97e7,4.21e7,1.84e7,1.73e7
Drip,1,2.97e7,4.27e7,1.48e7,1.86e7

Reprinted from the entries so far (3 entries):
target,reagent no.,"calcium entry signal, replicate 1 (fluorescence units)","calcium entry signal, replicate 2 (fluorescence units)","resting calcium signal, replicate 1 (fluorescence units)","resting calcium signal, replicate 2 (fluorescence units)"
Dhc64C,1,4.74e7,3.82e7,3.38e7,1.74e7
Rbp1-like,1,3.26e7,4.72e7,1.58e7,2.13e7
Rbp1-like,2,3.33e7,4.94e7,1.64e7,2.50e7

Next reagents follow.
target,reagent no.,"calcium entry signal, replicate 1 (fluorescence units)","calcium entry signal, replicate 2 (fluorescence units)","resting calcium signal, replicate 1 (fluorescence units)","resting calcium signal, replicate 2 (fluorescence units)"
CG30043,1,2.80e7,4.49e7,1.50e7,1.80e7
CG34305,1,3.46e7,3.49e7,1.70e7,1.59e7
Pex7,1,3.25e7,5.14e7,1.59e7,2.24e7
vari,1,4.47e7,6.40e7,2.02e7,2.45e7
sad,1,3.86e7,3.86e7,1.81e7,1.98e7
AANATL6,1,4.59e7,4.74e7,1.95e7,2.25e7
ppk9,1,4.84e7,5.37e7,2.43e7,2.23e7
ppk9,2,5.63e7,5.10e7,2.62e7,2.26e7
otk,1,3.30e7,3.93e7,1.72e7,1.99e7
CG15529,1,3.74e7,4.52e7,1.93e7,1.97e7
CG10301,1,4.57e7,4.22e7,2.16e7,1.94e7
CG7179,1,2.24e7,3.12e7,1.06e7,1.36e7
CG10433,1,4.04e7,,2.14e7,
ZnT35C,1,4.05e7,2.61e7,1.84e7,1.28e7
bab1,1,6.18e7,2.00e7,3.91e7,1.01e7
bab1,2,1.81e7,2.63e7,9.50e6,1.18e7
bab1,3,2.80e7,5.02e7,1.33e7,2.24e7
